Patent US9969775B2 (Ferring B.V., priority 2015, dated 2018)

Tests used:
[1] = Fmoc solid-phase peptide synthesis; Rink Amide MBHA resin; HBTU/NMM (Tribute; DIC/HOBt for cysteine); HATU/DIPEA or DIC/HOBt (433A); DIC/HO; conditions: whole synthesis, scale 0.15 mmol, TFA salt
[2] = general procedure: Fmoc solid-phase peptide synthesis; Rink Amide MBHA resin; HBTU/NMM (Tribute; DIC/HOBt for cysteine); HATU/DIPEA or DIC/HOBt (433A); DIC/HO; conditions: whole synthesis, overall yield based on 80% estimated peptide content, scale 0.15 mmol, trifluoroacetate or hydrochloride salts
[3] = general procedure: Fmoc solid-phase peptide synthesis; Fmoc-Rink amide MBHA resin; Fmoc-Rink amide ChemMatrix resin; HBTU/NMM (Tribute; DIC/HOBt for cysteine); HATU/DIPEA or DIC/HOBt (433A); DIC/HO; conditions: whole synthesis; for final HPLC purity: reverse-phase analytical HPLC
[4] = general procedure: Fmoc solid-phase peptide synthesis; Fmoc-Rink amide Chem Matrix resin; HBTU/NMM (Tribute; DIC/HOBt for cysteine); HATU/DIPEA or DIC/HOBt (433A); DIC/HO; conditions: whole synthesis, scale 3.5 mmol, TFA salt
[5] = general procedure: Fmoc solid-phase peptide synthesis; Rink amide MBHA resin; HBTU/NMM (Tribute; DIC/HOBt for cysteine); HATU/DIPEA or DIC/HOBt (433A); DIC/HO; conditions: whole synthesis, scale 1.77 mmol, hydrochloride salt
[6] = general procedure: Fmoc solid-phase peptide synthesis; Fmoc-Rink amide MBHA resin; HBTU/NMM (Tribute; DIC/HOBt for cysteine); HATU/DIPEA or DIC/HOBt (433A); DIC/HO; conditions: whole synthesis, overall based on 89.6% peptide content, scale 1.95 mmol, hydrochloride salt
[7] = Fmoc solid-phase peptide synthesis; Fmoc-Rink amide MBHA resin; HBTU/NMM (Tribute; DIC/HOBt for cysteine); HATU/DIPEA or DIC/HOBt (433A); DIC/HO; conditions: whole synthesis, scale 1.95 mmol, hydrochloride salt
[8] = trifluoroacetate or hydrochloride salts

Oxazole-2-carbonyl-D-Val-Phe(2-Cbm)-c(Cys-Orn(iPr)-Asp-Val-Gly-Pro-3Pal-Cys)-3Pal-NH2
isolated mass [1]: 80.2 mg | isolated yield [2]: 30% | final HPLC purity [3, 8]: 96.8%

Oxazole-2-carbonyl-D-Val-Phe(2-Cbm)-c(Cys-Orn(iPr)-Asp-Val-Gly-Dhp-Phe(3-Cbm)-Cys)-3Pal-NH2
isolated yield ([3]; overall based on 78.5% peptide content, scale 3.5 mmol, trifluoroacetate or hydrochloride salts): 14.1% | final HPLC purity [3, 8]: 98.3% | isolated mass [4]: 116.2 mg

Picolinoyl(3,5-F2)-D-Val-Tyr-c(Cys-Orn(iPr)-Asp-Val-Gly-Pro-Phe-Cys)-3Pal-NH2
isolated yield ([3]; overall based on 87.3% peptide content and 98.8% purity, scale 1.77 mmol, trifluoroacetate or hydrochloride salts): 20% | final HPLC purity [3, 8]: 98.8% | isolated mass [5]: 583 mg

Oxazole-2-carbonyl-D-Val-Phe(2-Cbm)-c(Cys-Orn(iPr)-Asp-Val-Gly-Pro-Phe-Cys)-3Pal-NH2
isolated yield [6]: 32.3% | isolated mass [7]: 1009.8 mg | final HPLC purity ([3]; hydrochloride salt): 90.7%
